Measurements reported in patent US20020177193A1.
Results are given in words; binding and its absence hold for the method and conditions named. Binding seen in cells or lysates may run through a third protein. A yes stands for co-enrichment or nearness to the bait. Other partners may have been found.

By UniProt entry, the sequences of proteins in these tests, tags left out. Residues count along the entry.
UniProt P16234, residues 24-528: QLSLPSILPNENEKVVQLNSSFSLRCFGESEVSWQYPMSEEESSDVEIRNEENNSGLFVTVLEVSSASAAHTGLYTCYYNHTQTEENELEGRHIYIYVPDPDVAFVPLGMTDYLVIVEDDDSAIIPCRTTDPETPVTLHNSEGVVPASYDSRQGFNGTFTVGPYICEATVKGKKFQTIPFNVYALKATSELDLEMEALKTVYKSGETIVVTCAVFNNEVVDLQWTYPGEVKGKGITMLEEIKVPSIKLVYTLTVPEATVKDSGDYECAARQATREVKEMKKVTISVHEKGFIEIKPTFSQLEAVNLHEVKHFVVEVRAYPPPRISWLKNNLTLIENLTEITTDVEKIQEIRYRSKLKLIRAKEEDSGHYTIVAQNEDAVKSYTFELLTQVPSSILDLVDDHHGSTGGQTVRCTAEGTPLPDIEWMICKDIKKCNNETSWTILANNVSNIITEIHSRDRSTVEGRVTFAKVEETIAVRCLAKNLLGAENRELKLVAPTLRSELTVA
UniProt P01127, residues 82-190: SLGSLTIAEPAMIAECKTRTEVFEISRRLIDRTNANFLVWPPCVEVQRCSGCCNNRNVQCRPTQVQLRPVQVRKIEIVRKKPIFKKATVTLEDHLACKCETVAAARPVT

molecular target: PDGF alpha receptor IgG Fc-receptor extracellular domain fusion protein (UniProt P16234); experiment: SELDI mass spectrometry (ProteinChip); receptor-Fc captured on protein A, compared with an Fc only control

binding	Substance
binds	PDGF-AA (from UniProt P04085 87-211) (ligand)
binds	PDGF-BB (from UniProt P01127 82-190) (ligand)
binds	PDGF AB (from UniProt P04085 87-211; P01127 82-190) (ligand)
